Compound in the assay: Nc1ncnc2c1ncn2[C@@H]1O[C@H](COP(=O)(O)OP(=O)(O)OP(=O)(O)O)[C@@H](O)[C@H]1O [adenosine triphosphate]
Kind of assay: NP40-soluble protein abundance relative to vehicle (solubility fold change) (ratio); higher = more soluble protein in presence of ATP. In a few lines:
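Values are fold changes against the detergent-processed vehicle, based on vsn-normalised intensities. Jurkat crude lysate was treated at eight concentrations from 0.1 to 10 mM (10 min at room temperature, then 3 min at 37 °C), solubilised with 0.8% NP40 and benzonase, ultracentrifuged and analysed by TMT-labelled LC-MS/MS over three independent experiments.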

The chains behind the UniProt entries cited, without tags or fusion partners. Where a name states a change or a piece, a line headed by the entry shows the natural chain unless it says otherwise.
UniProt Q9Y385: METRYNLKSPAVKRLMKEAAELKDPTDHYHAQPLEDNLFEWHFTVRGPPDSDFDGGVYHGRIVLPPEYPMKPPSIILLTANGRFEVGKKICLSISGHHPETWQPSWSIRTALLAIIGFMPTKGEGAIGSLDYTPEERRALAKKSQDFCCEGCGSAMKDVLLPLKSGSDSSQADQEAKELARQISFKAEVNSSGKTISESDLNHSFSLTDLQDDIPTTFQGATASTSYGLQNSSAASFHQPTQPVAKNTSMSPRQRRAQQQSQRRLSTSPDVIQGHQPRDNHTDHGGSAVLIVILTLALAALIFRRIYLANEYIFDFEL
UniProt Q9Y3C1: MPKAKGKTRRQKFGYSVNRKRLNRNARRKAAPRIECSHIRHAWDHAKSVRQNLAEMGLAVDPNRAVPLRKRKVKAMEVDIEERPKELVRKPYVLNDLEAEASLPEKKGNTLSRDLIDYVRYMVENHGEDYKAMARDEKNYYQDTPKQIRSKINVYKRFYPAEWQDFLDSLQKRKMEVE
UniProt Q9Y2W2: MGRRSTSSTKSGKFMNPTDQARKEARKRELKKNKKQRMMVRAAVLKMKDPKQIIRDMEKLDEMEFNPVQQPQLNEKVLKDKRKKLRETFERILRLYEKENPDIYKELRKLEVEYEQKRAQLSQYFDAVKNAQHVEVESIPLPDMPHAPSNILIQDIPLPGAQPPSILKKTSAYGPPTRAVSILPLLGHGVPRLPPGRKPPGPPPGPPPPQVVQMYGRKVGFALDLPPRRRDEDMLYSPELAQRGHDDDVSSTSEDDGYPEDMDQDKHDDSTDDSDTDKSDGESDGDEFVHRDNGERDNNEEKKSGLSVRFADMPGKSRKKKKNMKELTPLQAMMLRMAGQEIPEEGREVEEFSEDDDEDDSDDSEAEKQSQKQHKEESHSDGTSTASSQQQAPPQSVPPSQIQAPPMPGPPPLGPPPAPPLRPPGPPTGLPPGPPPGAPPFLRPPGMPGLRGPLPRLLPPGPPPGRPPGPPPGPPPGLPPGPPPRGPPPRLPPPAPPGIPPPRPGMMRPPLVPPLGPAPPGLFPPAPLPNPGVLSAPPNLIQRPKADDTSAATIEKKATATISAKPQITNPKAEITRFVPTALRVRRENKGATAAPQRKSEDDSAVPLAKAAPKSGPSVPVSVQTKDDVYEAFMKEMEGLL
UniProt Q9Y2W1: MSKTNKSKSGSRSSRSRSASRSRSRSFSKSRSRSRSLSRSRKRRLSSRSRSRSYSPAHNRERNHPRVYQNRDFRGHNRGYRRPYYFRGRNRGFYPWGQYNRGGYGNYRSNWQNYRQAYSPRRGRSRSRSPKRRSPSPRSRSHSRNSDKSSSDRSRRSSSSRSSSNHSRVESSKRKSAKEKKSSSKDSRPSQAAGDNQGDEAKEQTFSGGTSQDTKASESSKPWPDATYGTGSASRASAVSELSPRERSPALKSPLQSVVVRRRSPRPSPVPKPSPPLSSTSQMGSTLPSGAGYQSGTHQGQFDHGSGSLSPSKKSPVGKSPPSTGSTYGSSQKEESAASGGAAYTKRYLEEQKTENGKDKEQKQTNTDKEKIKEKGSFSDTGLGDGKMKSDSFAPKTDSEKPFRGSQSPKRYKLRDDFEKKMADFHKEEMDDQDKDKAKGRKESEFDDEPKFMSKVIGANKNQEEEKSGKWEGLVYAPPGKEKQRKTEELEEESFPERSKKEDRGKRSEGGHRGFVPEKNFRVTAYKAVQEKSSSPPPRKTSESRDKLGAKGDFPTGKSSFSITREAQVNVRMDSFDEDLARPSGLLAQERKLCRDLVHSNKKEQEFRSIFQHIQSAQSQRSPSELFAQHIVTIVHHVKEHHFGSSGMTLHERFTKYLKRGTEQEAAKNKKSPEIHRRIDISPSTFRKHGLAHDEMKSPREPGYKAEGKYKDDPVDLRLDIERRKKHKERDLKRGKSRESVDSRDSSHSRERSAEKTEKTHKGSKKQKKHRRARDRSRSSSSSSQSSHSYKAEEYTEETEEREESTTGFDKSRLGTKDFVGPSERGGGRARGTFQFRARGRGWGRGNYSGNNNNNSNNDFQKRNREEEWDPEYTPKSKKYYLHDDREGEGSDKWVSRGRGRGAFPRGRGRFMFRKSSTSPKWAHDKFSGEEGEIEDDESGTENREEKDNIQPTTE
UniProt Q9Y5A9: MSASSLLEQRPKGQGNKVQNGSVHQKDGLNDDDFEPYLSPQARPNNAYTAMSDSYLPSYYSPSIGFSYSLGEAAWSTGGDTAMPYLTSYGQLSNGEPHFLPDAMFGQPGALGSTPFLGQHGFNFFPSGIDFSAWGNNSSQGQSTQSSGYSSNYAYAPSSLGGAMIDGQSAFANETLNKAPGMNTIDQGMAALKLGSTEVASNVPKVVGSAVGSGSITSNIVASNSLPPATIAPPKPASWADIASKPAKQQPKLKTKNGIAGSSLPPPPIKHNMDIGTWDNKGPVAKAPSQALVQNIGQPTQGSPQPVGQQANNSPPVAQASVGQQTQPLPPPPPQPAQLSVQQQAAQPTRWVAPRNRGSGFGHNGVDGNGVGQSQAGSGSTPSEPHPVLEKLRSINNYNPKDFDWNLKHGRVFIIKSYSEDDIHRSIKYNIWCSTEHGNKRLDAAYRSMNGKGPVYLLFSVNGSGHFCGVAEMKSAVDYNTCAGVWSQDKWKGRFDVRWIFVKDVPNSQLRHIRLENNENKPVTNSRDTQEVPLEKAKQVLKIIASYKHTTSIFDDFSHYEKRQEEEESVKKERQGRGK
UniProt Q9Y2Z0: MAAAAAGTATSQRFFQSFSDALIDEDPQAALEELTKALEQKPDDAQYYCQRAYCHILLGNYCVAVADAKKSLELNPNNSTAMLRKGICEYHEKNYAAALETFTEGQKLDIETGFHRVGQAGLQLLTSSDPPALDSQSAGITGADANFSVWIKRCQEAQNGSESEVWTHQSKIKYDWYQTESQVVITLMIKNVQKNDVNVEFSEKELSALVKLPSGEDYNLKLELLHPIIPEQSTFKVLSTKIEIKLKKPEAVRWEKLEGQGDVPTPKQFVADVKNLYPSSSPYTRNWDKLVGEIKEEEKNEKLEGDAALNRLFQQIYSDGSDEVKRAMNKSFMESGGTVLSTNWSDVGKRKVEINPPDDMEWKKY
UniProt Q9Y6G9, whole entry: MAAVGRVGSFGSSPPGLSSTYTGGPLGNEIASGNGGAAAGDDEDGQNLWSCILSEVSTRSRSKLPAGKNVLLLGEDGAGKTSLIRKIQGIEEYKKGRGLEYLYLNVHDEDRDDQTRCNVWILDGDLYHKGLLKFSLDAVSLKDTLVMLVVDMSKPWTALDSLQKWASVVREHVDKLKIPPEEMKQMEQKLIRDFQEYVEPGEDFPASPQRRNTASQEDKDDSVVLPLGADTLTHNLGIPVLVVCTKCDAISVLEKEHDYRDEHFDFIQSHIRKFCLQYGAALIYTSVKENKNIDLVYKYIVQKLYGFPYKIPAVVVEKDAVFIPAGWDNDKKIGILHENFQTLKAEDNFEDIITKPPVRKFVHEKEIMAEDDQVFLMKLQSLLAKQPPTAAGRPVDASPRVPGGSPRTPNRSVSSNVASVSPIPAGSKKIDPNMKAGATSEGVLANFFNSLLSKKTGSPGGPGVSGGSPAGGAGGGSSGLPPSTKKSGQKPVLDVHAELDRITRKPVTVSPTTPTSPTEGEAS
UniProt Q9Y4L1: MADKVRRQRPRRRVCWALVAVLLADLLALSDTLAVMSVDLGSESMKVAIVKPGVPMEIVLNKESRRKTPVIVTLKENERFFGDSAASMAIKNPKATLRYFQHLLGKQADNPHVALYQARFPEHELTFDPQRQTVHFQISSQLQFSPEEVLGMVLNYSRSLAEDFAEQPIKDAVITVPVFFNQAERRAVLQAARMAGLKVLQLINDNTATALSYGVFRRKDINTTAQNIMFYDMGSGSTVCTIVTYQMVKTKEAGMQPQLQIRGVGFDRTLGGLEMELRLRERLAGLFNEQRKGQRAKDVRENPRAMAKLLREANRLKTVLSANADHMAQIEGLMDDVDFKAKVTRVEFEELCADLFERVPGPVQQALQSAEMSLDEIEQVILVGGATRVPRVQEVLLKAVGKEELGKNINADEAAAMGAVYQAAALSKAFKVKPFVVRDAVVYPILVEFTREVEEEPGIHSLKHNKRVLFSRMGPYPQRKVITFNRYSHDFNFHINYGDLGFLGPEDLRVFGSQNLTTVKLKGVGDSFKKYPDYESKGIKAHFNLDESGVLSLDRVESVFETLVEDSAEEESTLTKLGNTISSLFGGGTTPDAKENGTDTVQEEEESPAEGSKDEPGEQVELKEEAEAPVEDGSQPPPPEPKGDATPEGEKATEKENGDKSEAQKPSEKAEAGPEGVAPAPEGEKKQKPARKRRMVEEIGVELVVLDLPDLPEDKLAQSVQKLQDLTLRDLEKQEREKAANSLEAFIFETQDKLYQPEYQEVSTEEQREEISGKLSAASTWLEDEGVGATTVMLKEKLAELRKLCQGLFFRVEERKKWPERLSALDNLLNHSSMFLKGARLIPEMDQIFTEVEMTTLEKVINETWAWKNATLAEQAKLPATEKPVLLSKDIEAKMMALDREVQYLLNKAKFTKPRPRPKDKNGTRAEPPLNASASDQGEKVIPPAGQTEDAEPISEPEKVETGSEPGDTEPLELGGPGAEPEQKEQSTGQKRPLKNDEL
UniProt Q9Y448: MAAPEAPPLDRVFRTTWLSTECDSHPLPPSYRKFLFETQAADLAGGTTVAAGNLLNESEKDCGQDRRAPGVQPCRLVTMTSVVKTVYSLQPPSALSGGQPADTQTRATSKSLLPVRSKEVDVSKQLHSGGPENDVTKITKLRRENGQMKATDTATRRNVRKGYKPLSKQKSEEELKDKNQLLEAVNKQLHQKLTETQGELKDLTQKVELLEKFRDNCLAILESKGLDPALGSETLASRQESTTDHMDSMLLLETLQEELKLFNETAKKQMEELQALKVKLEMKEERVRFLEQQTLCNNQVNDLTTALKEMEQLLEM
UniProt Q9Y3Q8: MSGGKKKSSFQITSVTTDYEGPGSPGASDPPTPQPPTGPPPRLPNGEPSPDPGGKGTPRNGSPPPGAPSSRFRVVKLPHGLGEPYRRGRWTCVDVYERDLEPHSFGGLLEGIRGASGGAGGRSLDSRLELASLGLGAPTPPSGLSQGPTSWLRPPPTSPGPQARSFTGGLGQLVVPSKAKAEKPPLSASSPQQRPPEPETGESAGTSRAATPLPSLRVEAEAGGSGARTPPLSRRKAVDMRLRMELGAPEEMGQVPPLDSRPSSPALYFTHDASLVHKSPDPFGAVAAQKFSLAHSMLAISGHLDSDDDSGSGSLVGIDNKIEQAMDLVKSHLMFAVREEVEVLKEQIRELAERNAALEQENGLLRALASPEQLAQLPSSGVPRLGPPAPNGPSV
UniProt Q9Y570: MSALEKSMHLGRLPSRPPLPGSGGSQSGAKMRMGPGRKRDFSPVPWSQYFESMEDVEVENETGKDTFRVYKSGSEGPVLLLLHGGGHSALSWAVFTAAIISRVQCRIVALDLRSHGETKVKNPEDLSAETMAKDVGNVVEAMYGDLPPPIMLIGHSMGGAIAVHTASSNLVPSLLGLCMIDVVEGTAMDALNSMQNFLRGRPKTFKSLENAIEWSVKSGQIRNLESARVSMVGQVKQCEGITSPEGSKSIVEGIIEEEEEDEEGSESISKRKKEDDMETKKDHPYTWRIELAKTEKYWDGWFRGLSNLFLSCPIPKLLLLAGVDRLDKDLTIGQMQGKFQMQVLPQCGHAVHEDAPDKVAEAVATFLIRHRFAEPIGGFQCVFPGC
UniProt Q9Y5T5, whole entry, looked up: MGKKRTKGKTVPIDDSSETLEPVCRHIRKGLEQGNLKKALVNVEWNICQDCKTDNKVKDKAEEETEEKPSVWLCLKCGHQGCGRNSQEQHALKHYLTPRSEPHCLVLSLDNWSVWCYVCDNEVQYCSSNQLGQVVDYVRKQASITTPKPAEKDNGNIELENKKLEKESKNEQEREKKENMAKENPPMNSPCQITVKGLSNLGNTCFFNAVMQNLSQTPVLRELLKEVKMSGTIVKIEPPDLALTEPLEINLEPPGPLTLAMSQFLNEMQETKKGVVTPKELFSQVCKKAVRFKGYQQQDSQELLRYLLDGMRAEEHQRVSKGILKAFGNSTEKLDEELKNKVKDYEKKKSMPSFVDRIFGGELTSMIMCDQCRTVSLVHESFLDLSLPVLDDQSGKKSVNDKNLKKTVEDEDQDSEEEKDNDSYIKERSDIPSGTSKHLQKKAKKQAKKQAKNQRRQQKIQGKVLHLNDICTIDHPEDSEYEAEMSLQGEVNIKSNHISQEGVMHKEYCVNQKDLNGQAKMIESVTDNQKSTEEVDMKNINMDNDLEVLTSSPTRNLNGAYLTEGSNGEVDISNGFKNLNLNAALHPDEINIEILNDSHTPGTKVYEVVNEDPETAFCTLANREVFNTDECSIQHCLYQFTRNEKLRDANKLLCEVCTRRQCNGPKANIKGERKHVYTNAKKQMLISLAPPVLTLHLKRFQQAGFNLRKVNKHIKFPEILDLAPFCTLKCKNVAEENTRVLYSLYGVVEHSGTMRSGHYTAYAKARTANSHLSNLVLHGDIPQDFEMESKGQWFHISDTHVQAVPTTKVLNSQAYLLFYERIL

Our source for the NP40-soluble protein abundance values is the supplement of paper PMC6411743.

± gives the standard deviation of the averaged measurements. The entries are a selection whose mix differs from that of the whole data set. Most values lie at the level of the controls, where differences are scatter.

Consider AP3M1 (UniProt Q9Y2T2), for which the NP40-soluble protein abundance by setting is: (concentration: 0.1mM) 0.964 ± 0.088; (concentration: 0.5mM) 0.957 ± 0.058.
In the case of NUBP2 (UniProt Q9Y5Y2), the NP40-soluble protein abundance runs as follows: (concentration: 0.1mM) 1.05 ± 0.037; (concentration: 0.5mM) 1.04 ± 0.056.
In the same order, the values of UniProt Q9Y3B7 and related entries are 0.889 ± 0.23 and 0.87 ± 0.18.
In the same order, the values of UBE2J1 (UniProt Q9Y385) are 0.991 ± 0.053 and 0.997 ± 0.036.
In the same order, the values of UniProt Q9Y3D8 and related entries are 1.07 ± 0.062 and 0.983 ± 0.12.
As for UniProt Q9Y3C1 and related entries, the NP40-soluble protein abundance runs as follows: (concentration: 0.1mM) 0.991 ± 0.077; (concentration: 0.5mM) 0.873 ± 0.1.
In the same order, the values of WBP11 (UniProt Q9Y2W2) are 0.9644 ± 0.0085 and 1.04 ± 0.027.
Take GMPPB (UniProt Q9Y5P6): the NP40-soluble protein abundance turned out to be 1.01 ± 0.073 (concentration: 0.1mM) and 0.99 ± 0.069 (concentration: 0.5mM).
In the same order, the values of LSM4 (UniProt Q9Y4Z0) are 0.977 ± 0.023 and 0.947 ± 0.058.
In the same order, the values of THRAP3 (UniProt Q9Y2W1) are 1.03 ± 0.025 and 1.2 ± 0.071.
As for YTHDF2 (UniProt Q9Y5A9), the NP40-soluble protein abundance runs as follows: (concentration: 0.1mM) 0.9923 ± 0.0056; (concentration: 0.5mM) 1.006 ± 0.0088.
In the same order, the values of RAD54L2 (UniProt Q9Y4B4) are 1.01 ± 0.042 and 1.02 ± 0.025.
In the same order, the values of UniProt Q9Y2Z0 and related entries are 0.996 ± 0.025 and 1.01 ± 0.023.
In the same order, the values of DYNC1LI1 (UniProt Q9Y6G9) are 0.948 ± 0.044 and 0.985 ± 0.073.
On to HYOU1 (UniProt Q9Y4L1), for which the NP40-soluble protein abundance runs as follows: (concentration: 0.1mM) 0.978 ± 0.028; (concentration: 0.5mM) 0.996 ± 0.05.
UniProt Q9Y448 and related entries: the NP40-soluble protein abundance reads like this: (concentration: 0.1mM) 0.887 ± 0.12; (concentration: 0.5mM) 0.852 ± 0.15.
As to UniProt Q9Y3Q8 and related entries, the NP40-soluble protein abundance was determined as 0.993 ± 0.035 (concentration: 0.1mM) and 0.948 ± 0.075 (concentration: 0.5mM).
On to ALG5 (UniProt Q9Y673), for which the NP40-soluble protein abundance (concentration: 0.1mM) came out at 1.06 ± 0.11; the NP40-soluble protein abundance (concentration: 0.5mM) was determined as 1.1 ± 0.092; the NP40-soluble protein abundance (concentration: 1mM) was found to be 1.03 ± 0.089; the NP40-soluble protein abundance (concentration: 2mM) came out at 1.02 ± 0.074; the NP40-soluble protein abundance (concentration: 4mM) came to 1.03 ± 0.088; the NP40-soluble protein abundance (concentration: 6mM) was found to be 0.97 ± 0.13. The NP40-soluble protein abundance (concentration: 8mM) amounted to 1.03 ± 0.1 and the NP40-soluble protein abundance (concentration: 10mM) was 1.02 ± 0.058.
MRPS2 (UniProt Q9Y399): the NP40-soluble protein abundance reads like this: (concentration: 0.1mM) 1.06 ± 0.18; (concentration: 0.5mM) 0.993 ± 0.056; (concentration: 1mM) 1.11 ± 0.13; (concentration: 2mM) 0.951 ± 0.12; (concentration: 4mM) 0.932 ± 0.071; (concentration: 6mM) 0.917 ± 0.17. Besides, the NP40-soluble protein abundance (concentration: 8mM) is 0.944 ± 0.12 and the NP40-soluble protein abundance (concentration: 10mM) was determined as 0.884 ± 0.088.
Consider UniProt Q9Y2K1 and related entries, for which the NP40-soluble protein abundance (concentration: 0.1mM) was determined as 1.06 ± 0.034 and the NP40-soluble protein abundance (concentration: 0.5mM) turned out to be 1.09 ± 0.054.
Consider PPME1 (UniProt Q9Y570), for which the NP40-soluble protein abundance was 0.992 ± 0.042 (concentration: 0.1mM); 1.03 ± 0.059 (concentration: 0.5mM); 0.951 ± 0.039 (concentration: 1mM); 0.972 ± 0.056 (concentration: 2mM); 0.956 ± 0.037 (concentration: 4mM); 0.933 ± 0.085 (concentration: 6mM). For the same target, the NP40-soluble protein abundance (concentration: 8mM) was found to be 0.941 ± 0.023 and the NP40-soluble protein abundance (concentration: 10mM) was determined as 0.953 ± 0.058.
For UniProt Q9Y4P8 and related entries, the NP40-soluble protein abundance is, setting by setting: (concentration: 0.1mM) 1.04 ± 0.093; (concentration: 0.5mM) 1 ± 0.019.
Consider TMED3 (UniProt Q9Y3Q3), for which the NP40-soluble protein abundance amounted to 1.1 ± 0.1 (concentration: 0.1mM); 1.08 ± 0.041 (concentration: 0.5mM); 1.08 ± 0.12 (concentration: 1mM); 1.07 ± 0.12 (concentration: 2mM); 1.06 ± 0.086 (concentration: 4mM); 1.04 ± 0.13 (concentration: 6mM). In addition, the NP40-soluble protein abundance came to 1.06 ± 0.057 (concentration: 8mM) and 1.04 ± 0.088 (concentration: 10mM).
As for UniProt Q9Y5T5-2, the NP40-soluble protein abundance is, setting by setting: (concentration: 0.1mM) 1.04 ± 0.0063; (concentration: 0.5mM) 1.06 ± 0.051; (concentration: 1mM) 1.08 ± 0.067; (concentration: 2mM) 1.11 ± 0.032; (concentration: 4mM) 1.19 ± 0.014; (concentration: 6mM) 1.33 ± 0.045. For the same target, the NP40-soluble protein abundance reads like this: (concentration: 8mM) 1.351 ± 0.012; (concentration: 10mM) 1.41 ± 0.028.
